Experimental data reported in US20060057679A1.
Results are given in words; binding and its absence hold for the method and conditions named. Some binding calls cover weakened binding; strength is not graded here. Each block holds one substance with its values, some of them ahead of it.

Amino acid sequences for entries named in this document (tags omitted). A change or cut given only in a name is not applied to a line headed by its entry. Residues count along the entry.
UniProt Q15109, residues 23-344: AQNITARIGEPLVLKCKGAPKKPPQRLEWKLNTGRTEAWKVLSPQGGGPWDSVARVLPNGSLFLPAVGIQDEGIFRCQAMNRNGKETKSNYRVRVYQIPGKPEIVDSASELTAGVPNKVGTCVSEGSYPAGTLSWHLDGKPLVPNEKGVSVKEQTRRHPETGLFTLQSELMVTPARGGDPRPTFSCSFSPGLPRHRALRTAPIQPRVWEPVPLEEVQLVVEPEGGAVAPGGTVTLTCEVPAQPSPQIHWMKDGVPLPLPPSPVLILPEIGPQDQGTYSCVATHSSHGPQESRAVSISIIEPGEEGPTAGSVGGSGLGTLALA

What was measured:
[1] = molecular target: RAGE-Ig fusion protein (SEQ ID NO:6) (human); assay: capture assay: plate coated with RAGE-Ig (5 ug/ml), recombinant HMGB1 added, detected with mouse anti-HMGB1 mAb 10D4, Meso Scale Discovery reader
[2] = molecular target: RAGE-Ig fusion protein (SEQ ID NO:6) (human); assay: capture assay: plate coated with RAGE-Ig (5 ug/ml), lysate of freeze-thawed mouse fibroblasts added, detected with mouse anti-HMGB1 mAb 10D4
[3] = molecular target: RAGE-Ig fusion protein (SEQ ID NO:6) (human); assay: competition ELISA: 25 nM RAGE-Ig preincubated with 10 uM competitor, then on coated recombinant rat HMGB1; bound RAGE-Ig detected with anti-human IgG-HRP, OD 650 nm
[4] = molecular target: RAGE-Ig fusion protein (SEQ ID NO:6) (human); assay: competition ELISA, competitor at 10 µM, RAGE-Ig at 25 nM, coated rat HMGB1
[5] = molecular target: RAGE-Ig fusion protein (SEQ ID NO:6) (human); assay: competition ELISA, competitor against coated HMGB1 for RAGE-Ig
[6] = molecular target: recombinant rat HMGB1 (SEQ ID NO:12) (rat) (UniProt P63159); assay: ELISA on coated recombinant rat HMGB1 (3 ug/ml), bound RAGE-Ig detected with anti-human IgG-HRP, absorbance 655 nm
[7] = molecular target: T1, HMGB1 A box (amino acids 9-85 of the HMGB1 sequence) (human); assay: ELISA, coated A box peptide
T1 sequence (peptide): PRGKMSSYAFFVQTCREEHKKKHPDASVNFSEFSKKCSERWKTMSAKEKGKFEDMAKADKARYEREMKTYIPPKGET

[8] = molecular target: T1, HMGB1 A box (amino acids 9-85 of the HMGB1 sequence) (human); assay: ELISA, coated A box peptide at 5 µg/ml
[9] = molecular target: T1, HMGB1 A box (amino acids 9-85 of the HMGB1 sequence) (human); assay: ELISA on coated HMGB1 A box peptide (5 ug/ml), bound RAGE-Ig detected with anti-human IgG-HRP, absorbance 655 nm
[10] = molecular target: HMGB1 B box (amino acids 91-169 of the HMGB1 sequence) (human); assay: ELISA on coated HMGB1 B box peptide (5 ug/ml), bound RAGE-Ig detected with anti-human IgG-HRP, absorbance 655 nm
[11] = molecular target: recombinant rat HMGB1 (SEQ ID NO:12) (rat) (UniProt P63159); assay: ELISA, coated recombinant rat HMGB1 at 3 µg/ml, anti-human IgG-HRP
[12] = molecular target: recombinant rat HMGB1 (SEQ ID NO:12) (rat) (UniProt P63159); assay: ELISA, coated recombinant rat HMGB1, anti-human IgG-HRP
[13] = molecular target: HMGB1 B box (amino acids 91-169 of the HMGB1 sequence) (human); assay: ELISA, coated B box peptide
[14] = molecular target: HMGB1 B box (amino acids 91-169 of the HMGB1 sequence) (human); assay: ELISA, coated B box peptide at 5 µg/ml

- binding [1]: binds
Substance: recombinant HMGB1 (Example 15, FIG. 16A) (from UniProt P63159 1-215) (ligand)

- binding [2]: binds
Substance: native HMGB1 in lysates of freeze-thawed wildtype mouse fibroblasts (from UniProt P63158 1-215) (ligand)

- binding [3]: binds
- binding [4]: binds
- binding [5]: binds
Substance: recombinant rat HMGB1 (SEQ ID NO:12) (from UniProt P63159 1-215) (ligand)

- binding [6]: binds
- binding [7]: binds
- binding [8]: binds
- binding [9]: binds
- binding [10]: binds
- binding [11]: binds
- binding [12]: binds
- binding [13]: binds
- binding [14]: binds
Substance: commercially-available recombinant human RAGE/Fc chimera (R&D Systems, Inc., Catalog No. 1145-RG) (from UniProt Q15109 23-344) (Fc fusion)
